Data on 30 sequences can be found in PubChem BioAssay AID1508600 (Functional Genomics Laboratory (NCATS/FGL), 2020).

In all, about 53,000 sequences went through this assay and about 3,700 (7%) were called active.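 The calls were made as follows: active = gene knockdowns whose robust z-score for IL-1 alpha signal is at least 2 or at most -2, so actives lie on both sides; inactive = the rest.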 This is one part of the list.

This assay is described as follows: Components of the Cytosolic LPS Sensing Pathway: Gene Identification via Genome-wide siRNA Screen.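 Also: robust z of the log signal after scaling to non-targeting control siRNA wells of the plate.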 The following applies: RAW264.7 macrophages, IL-1a HTRF, actives lie on both sides, screened at 100 nM (by protocol), cells primed 5 h with Pam3CSK4 first. Put shortly:
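Supernatant IL-1a by HTRF from RAW264.7 cells primed with Pam3CSK4 (5 hours) and transfected with LipidA (24 hour) after 48h siRNA knockdown at 100 nM; cell viability checked with CellTiter-Glo.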
In general terms: Time-resolved FRET reads energy transfer from a long-lived donor to a nearby acceptor.
For the sequence GGCUCUCACACUCAAGUAUTT against Srpr, the z-score was inactive: 0.458.
For GGUUUUGCUCUCUAUUUGUTT against Ube2e3, the z-score was inactive: -0.0571.
UCUCCAUAUCCUAUGGAAGTT against Olfr813: the z-score was inactive: 0.638.
For GGGAUCAGGCCAUUUCCAUTT against Vav2 the value was active: 2.26; for GGGAGUUUCAUUUUGAAAATT against Nipa2, inactive: -0.987; for CCGUCGUGGAGCCAUUAAATT against Prkcd, inactive: 0.832.
In the case of GGGUUCAUUUCUCACCUCCTT against Bcl7b, the z-score is inactive: -0.298.
In the case of CGACGUAGAAACAGUGCAGTT against Ankrd54, the z-score was inactive: 0.527.
In the case of GGAAAUGACACUUAUUGAATT against Ndst4, the z-score was inactive: -0.702.
For GCUGAUAAGGAGGUACCAUTT against Igf2r the value was inactive: 0.916.
Regarding GGAGCCCAGGAAGAUGACATT against Cyp2c54, the z-score was active: -3.15.
For GGGACUUUCAUAAUGCCAGTT against Snip1, the z-score is inactive: -1.57.
On to GGUCUUUAGCAGAGAAAAUTT against Zfp420, for which the z-score is inactive: -0.201.
Regarding “GGCAUUAGCUACCUGGACATT against 1700013G24Rik”, the z-score was active: 3.44.
Turning to GGUAUUGGAAAGUAGAAACTT against Igflr1, the z-score is inactive: 0.515.
Regarding GCGAAUCGCACAGGAUCUUTT against Hps4, the z-score is inactive: -0.707.
For GGAUGAUGAAAACAAAGAATT against Skp1, the z-score is inactive: -0.239.
Take GGAGAAAACCUAGAAAUUUTT against Galnt1: the z-score was inactive: 0.238.
For GGAAUUCUGGGAACAAAAGTT against Riox2 the value was inactive: -1.71.
In the case of GGACACAACAAGAAAUUCUTT against Suclg1, the z-score is inactive: 0.621.
For the sequence GGCUAUCCUCUUUUACCAUTT against Dele1, the z-score is inactive: -0.374.
Turning to GAGCAUCCGCUACUUGGUATT against Nmnat1, the z-score is inactive: 0.0484.
As to GGAGGAUGGUGCCAACAUUTT against Psmc3, the z-score is active: -2.02.
Regarding GGUAGUCAUACAGAUAUGUTT against Hey2, the z-score was inactive: 0.973.
For GGCACUUGGAGGUAGUUUCTT against Cip2a, the z-score was inactive: 0.811.
For GGAACAUGUAGAAGGUCCATT against Slc9a3r2 the value was inactive: 1.97; for GGCUAUGGAGAGAGUAUGCTT against Crppa, inactive: 0.413; for GGAGGAAAGAAAAGAUCCATT against Tie1, inactive: -0.102.
For GGCUCCGAGAAAUGCAAUCTT against Mmp13 the value was inactive: -0.832; for GGAAGAAGUCUGAUACAUCTT against Samd5, inactive: 0.572.
